Measurements as given in paper PMC4712133.
These are yes or no findings as the source states them, for the method shown. Some results given as binding are weak or reduced against the parent protein; the word gives no strength. Each block holds one binder with its values, some of them ahead of it.

Chains of the proteins cited; added tags and fusions are not shown. Residues count along the entry.
UniProt P10451, residues 17-314: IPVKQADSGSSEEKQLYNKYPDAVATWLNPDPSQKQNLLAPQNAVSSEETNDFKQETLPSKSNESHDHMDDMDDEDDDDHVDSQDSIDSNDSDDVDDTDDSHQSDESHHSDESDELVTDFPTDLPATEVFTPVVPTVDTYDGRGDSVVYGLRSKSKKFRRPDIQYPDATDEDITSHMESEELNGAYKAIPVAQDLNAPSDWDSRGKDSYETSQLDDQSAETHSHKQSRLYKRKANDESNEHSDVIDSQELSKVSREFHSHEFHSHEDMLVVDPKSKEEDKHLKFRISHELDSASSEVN

Molecular target: osteopontin (OPN), recombinant human (human) (UniProt P10451)
Assay: SPR; BIAcore X-100; human OPN immobilised on a CM5 chip by amine coupling; AMPs injected at 31.25-500 nM in 10 mM HEPES pH 7.5, 150 mM NaCl, 0.005% surfactant P20, 3.4 mM EDTA, 30 ul/min; 1:1 binding model with drifting baseline; both purified

binding: binds
Binder: GIINTLQKYYCRVRGGRCAVLSCLPKEEQIGKCSTRGRKCCRRKK (peptide, UniProt P81534 23-67) [human beta defensin-3 (hBD-3)]

binding: binds
B1: midkine (protein, UniProt P21741 21-143)
chain: VAKKKDKVKKGGPGSECAEWAWGPCTPSSKDCGVGFREGTCGAQTQRIRCRVPCNWKKEFGADCKYKFENWGACDGGTGTKVRQGTLKKARYNAQCQETIRVTKPCTPKTKAKAKAKKGKGKD
